Source: PMC12370185
The other results are listed elsewhere or left out. For part of these data: At the low end of the ranking the order means little.

How the values were obtained:
Settings in all cases: 10 mM Tris-Cl pH 7.5, 50 mM NaCl, 1 mM DTT, 0.25 mg/ml BSA, 2 mM MgCl2, 0.025% Nonidet P-40, 5% glycerol; 28 nM nucleosome library; 10 min on ice then 30 min …; high values mean tight binding; double strand, one strand shown
KLF4 + histone octamer = assay: EMSA with sequencing
SOX2 + histone octamer = assay: EMSA with sequencing
OCT4 + histone octamer = assay: Pioneer-seq (competitive nucleosome EMSA with sequencing)
[1] = test system: c-MYC + MAX + histone octamer; assay: as above
[2] = test system: c-MYC + MAX + histone octamer; assay: EMSA with sequencing

| Sequence | binding signal (log2 relative supershift) (KLF4 + histone octamer) | binding signal (log2 relative supershift) (SOX2 + histone octamer) | binding signal (log2 relative supershift) (OCT4 + histone octamer) | binding signal (log2 relative supershift) [1] | binding signal (log2 relative supershift) [2] |
| --- | --- | --- | --- | --- | --- |
| GATGGACCCTATACGCGGCTCAGAACCAGATGCACAAAGAACAAACAAGTTTCCCAGCAGGACTCAAAATAGAAGGGATGGTGACTGCATGCCTTACCATTCGGGATCCTCTTCTTCCCGGAGAACTCCGCGCAGGCAGGTCTGTACCTGCTTAGAGGCAGCCTGTCTGTTGAGCAGCCCATCCTCAGTGAGGGACGATAAGAGACTGGGTGCCAGTCGGATAGTGTTCC | 1.07 | 1.31 | -1 | -0.161 | – |
| GATGGACCCTATACGCGGCCACGCTCATTTGTCTGGAGAAAACACTGAGACCTGGAGCATGTGTGTACATGCTCACCATACAGCCCGCCCCCGATGATTGTCAGGAGAGTCAGCTGATCTGAGAAAGTGACAAGCATTGGTCATTTCAGAGAAACCGGGAGTTGGGCTTTTTAAAAGAGGCATAAAGAAACTGGGAAAATGAGACTGAGTTGCCAGTCGGATAGTGTTCC | 0.753 | 0.753 | -0.622 | -0.0856 | – |
| GATGGACCCTATACGCGGCAGGGGGACAATGTCAAAGGCACATGGAAGCTCCCCTTTTATTATTAGCTGGGTGTGTGCCCAGCTCCTCCCAAACAGAACAGGGCTGGGACTCGAGGTGGAGGCTGAGGCTTAACCCCCTCCCTGGTGCCATTGTCCTGCAGACAGCCAGAGGGAGGAGGCACCAGCCCAAGGGAGGAGGTATTAGCCCTCTGCCAGTCGGATAGTGTTCC | 2.43 | 1.81 | -0.515 | – | 0.895 |
| GATGGACCCTATACGCGGCAGTTAGAAAGGGTTTGAAATTCAGAGTGGAGCCATACTGTACAATGGTGATACCCCATGTGGCTCTCTTAGCTAAGCATGCTCTGAAGTGGAACTGAGGAGAGGGAGGAACTGAGAGACCAGGATCTGGGTGGGTCATCCACACGAACATTGCAACCACCCAGGATAATGGCAGCACTTGTGGCAAGGGGGTGCCAGTCGGATAGTGTTCC | 1.8 | 1.21 | -0.277 | – | 0.748 |
| GATGGACCCTATACGCGGCCTAGAGCTGGTGGAGAGTCGGGAGAGGCAGCTGATCGGGCAGATAAGAGCAGATCATGTTGAGTCTTGTGCAGTTTGCGCAGAAGTTTGGATGTAACTCTGTAAGCATTAGAGAAATGTCATCTGGCAGCATTCATAGAAGCTATCACAAGAGGACCAGACAGAAGTCTGGTTTGAAACCAAGGCAACAACTGCCAGTCGGATAGTGTTCC | 1.17 | 0.561 | -0.21 | – | 0.635 |
| GATGGACCCTATACGCGGCATTCTCTAAATCCCAAGTATCTCCCCCTGCTTAAAGACTCCTTCAGAGTCCTTTGTTGAAAACATTGTACCCCTCTCAATTAGCTACACTTACAGTTGTCATTCACTTTTCAACACCCACCCCCATGCATTACAATGTAGCTAAGTGCTCTAGCTGAAGTTATAAAAGACATCCTAATCACCAAGTCTCAGTGCCAGTCGGATAGTGTTCC | 0.554 | 1.11 | -0.0597 | – | 0.241 |
| GATGGACCCTATACGCGGCGAGTGACTTAAGAATGTCAGAGAATAGCAAGGGAGTGGCAGAAACCCTGTGAAGCACAGGCTAAGTATGGCCATATACAGAAGGGTGGAGTCATTGTTGTGCTATTCCCTTCCCCAATGCCTAAGTCACAGCTGTGCCCCACCATTCATGGGCCCTTGTTGCTGCTGTACCCAGCCTCACAAAGTCTGGTCTGCCAGTCGGATAGTGTTCC | 2.09 | 0.631 | -0.536 | -0.0027 | – |
| GATGGACCCTATACGCGGCGCAGTAAAATCAACAGCTATGGTTGTGATGGAAGAAGAAAGACATAACCATTACCCAGAAGAGGGTGGATAGTAGTGTTTAGTTTTATTATTAGCAGCACTATTTACATAACAGCACATGTGCATGCCTGCCTGTCCATATAGAGCTATGGGCTTGGGGTGGGGCAAGAGAGAGTCATTGCTTGTAGAATTTGCCAGTCGGATAGTGTTCC | 1.83 | 0.088 | -0.265 | -0.132 | – |
| GATGGACCCTATACGCGGCAAAAAAAAAGCGAAGGTGAGATGAAGCTTCAGAAAATAGAGGGCCGGGGAGGACACAGGCAGACAGAAGGAATGAGCGACTCAGTCTCAGGTTTCTGGGTCAGATCCAGGTCACATGTTTTGTCTCCTATAAAACTTACACCATACTTGTCGTTACTTGTTCAGTGCCTGCCTCTTCAACTAGGCTGTGAATGCCAGTCGGATAGTGTTCC | 1.4 | 0.909 | -0.16 | -0.0792 | – |
| GATGGACCCTATACGCGGCTTCTGTCCTTGTTCCTCGTCCCATCTGGAGCATTTCCAATTCTGGTTTTGCGGAGCAGCAGGTCTGAGCTTGTCCGGCGAGGGTGGGAGTTGGTCCCGGCGGAGATCCAGTGGGAAGAGCCGGCGGCTGCCCGGGCGTGAGTAGACCGAGAATCCTGCCCGATCCCCGCCCCTGGGCTGGTGTCGCCCTGGTGCCAGTCGGATAGTGTTCC | 1.28 | 0.474 | -1.16 | – | 0.541 |
| GATGGACCCTATACGCGGCGCGGTTATGTGTCTTCTTATTCAGGCTTGCTCACTGTACTTTGTTTGTGCAGGGAACAATGCTATCATGATCATTATAATGTAAACATCCCCTCCCAAAGTGTTAGGAAAAGTCTGCTGCAGCTCCCTGTGGTCTACTGTCAGTTACCACTTGTACCCATCTGTTTTATAGCCTCTTCAGTTTTGTTACTGTGCCAGTCGGATAGTGTTCC | 0.558 | 1.3 | -0.124 | – | 0.314 |
| GATGGACCCTATACGCGGCTGCCTTTTTGAGAAGTAGACATATGTACTGGAGGCAACCTAGCTTGGTGTGATGAGCAACAGATTGGAACACAGAGCAGCACTAGGTGTACAGTGTCAGGAAGTCCAACTCAGTGGGTGTTTGTTATGCACAAGGAACTTTGACAGGCATTATTGTGGGAGAGGGTGGTTGAGGTGGATATAAGCATGAATTGCCAGTCGGATAGTGTTCC | 1.99 | 0.553 | -0.123 | – | 0.135 |
| GATGGACCCTATACGCGGCATGAGGAACAGCGTTTGTCTTTGTAACAGCTTGAAGAAAGACCCTTTCCAGGACCCAGTCATGCAGTTACAATCTTGACCTCTTTCTTATGCTGGGAACATGCATACAGCAGCACCTCCCATGTGTTTTCTTGTCCCATTGACTGTCCATTCACTTCCCATCTGTTTTGCAGTCTTAAAGGAACAGAAGGGTGCCAGTCGGATAGTGTTCC | 0.852 | 1.3 | -0.237 | – | 0.706 |
| GATGGACCCTATACGCGGCATTCAACAGCAGAGAAGAATCCCAAAGCTTGTTGGGTCAGTTTTGGGGGACTGCATTTTCATGAACCAGAGCTGCATCCAGCAGGTTGGGGCCTGTATGCACCCTAGCCAGGATGGAGTGGGAAGGAAGTGCGCAATTCTGACTCCACAAACACCTTTGGTAAGTAGGAGGCTATTTCTACTCATAGATACTGCCAGTCGGATAGTGTTCC | 1.16 | 0.717 | -0.188 | – | 0.0594 |
| GATGGACCCTATACGCGGCCAAGCCCATAGATGAATAGAATGACAGGGAAGGGCATCTCAGTAGAAGAGAAATTTCAACAAGTGTATGGAAGTACAAGAGAGTAGCACAAGGACAGGATGACACAGCCCAAGTACCTAGAGCCAATCTGCACATGGAAAATTCTAAGAGGTGGGTGGAGGATGGGGAGGGAGCATGGCCCTAAAAATGAGTGCCAGTCGGATAGTGTTCC | 2.69 | 0.744 | -0.265 | – | 0.432 |
| GATGGACCCTATACGCGGCATATTTTTGAGTGACGGAGGGAGTGTAGCTCAGAGGTTAGGTGACGGGAACCAAGTCATATGGATGCGGACTGGACCTGGACCCAGGTCTGCCGCCTCCTGAGTCACATGCTCTCCAGCGCGCCCTGACACGTCTCCCCACATCCTGCCTGTCCTCATTGGCCATGCCCTGGGGGAATGCCTTTGTGGTTGTGCCAGTCGGATAGTGTTCC | 2.15 | 0.579 | -0.575 | – | 0.0688 |
| GATGGACCCTATACGCGGCTCCTCAAACCAGTGGCTTTGTTGGGTAGCACAAGGAGTTGGTCAAGAATATCAGCTGCCACACAGTCTTCAGTCCTGCTCATGAGCAGACAGGCGTACCACTTTTACTCAGATACCTAGCATTTCAATGCTCATTTAAATAATTCAGACTATACACATGTCTTAGCAGATTTTCCTCTTCCAGCCAACAATTGCCAGTCGGATAGTGTTCC | 0.717 | 1.14 | -0.146 | – | 0.398 |
| GATGGACCCTATACGCGGCGGTTGCTCTCAGCAGTGAGCCATTCATTCCTCAGAGATTTGGGAGCCCTCACCACGTGCAGACGCTGTGCTGCAGGCTGGGAACCACAGGAGAAATGGCTGAATGTTCTGTGGGTGTGGCTGTAGGCAGAGGGCTGATCAGTGAGGTGGGGTGGTGACAGTCTTCTATAGGATGTCGTATGCATCATTTATTGCCAGTCGGATAGTGTTCC | 1.74 | 0.522 | -0.0355 | – | 0.262 |
| GATGGACCCTATACGCGGCTGATCAGAGCTGTAAAGGTTTCTAAACAATCAGAGGCCTTTGATATGGTTGCCAACACCCACATTTTCCATTCTGGGAACAATGCCATCAAGGGCCACAGCCTCAGTCCCCCACCTAAGTGAGGAAGTGTCTGCTGGTTGCTGGTAGGAGCAGGTCCTGTGAGGGCAAGGGTCAGAAGGACAGAGGAGTCTTGCCAGTCGGATAGTGTTCC | 1.55 | 0.815 | -0.229 | – | 0.691 |
| GATGGACCCTATACGCGGCTTTGGATATTTTAAAACAAATCCAGGAAGAGAGCAATGTACAACACAAAGGGATGAATCACAAATGGCAGAATTTCAGACATGAGTCAGAGATATTTTGGGTGTAGACCTGCCCTGTGTCCTATAACCCTACCACCTACTCACCTCACATTTCTCATATGAACTGATTGTTCTCTTGTTCCCTTTTTTTGTTGCCAGTCGGATAGTGTTCC | 0.332 | 2.13 | -0.18 | -0.113 | – |
| GATGGACCCTATACGCGGCTGTTTTGCACTTGGACAGGTATGAGTCAACTGTTGCCATAGTAATGTTGCATAACAAACCATTCCCAATCTCAGTGGTTTACAGCACAATCATTTATTCTTATGCAGGTCACCAGGGCAACTCTGGTTCAGTTGACCCAGGATTGGTTTGACTGGGTGACTCTTCTTCAGGTTGTGGATCAATTACCCCTGTGCCAGTCGGATAGTGTTCC | 0.754 | 0.294 | -0.212 | – | 0.402 |

Some of the entries so far, bar-delimited:
Sequence | binding signal (log2 relative supershift) (KLF4 + histone octamer) | binding signal (log2 relative supershift) (SOX2 + histone octamer) | binding signal (log2 relative supershift) (OCT4 + histone octamer) | binding signal (log2 relative supershift) [1] | binding signal (log2 relative supershift) [2]
GATGGACCCTATACGCGGCATGAGGAACAGCGTTTGTCTTTGTAACAGCTTGAAGAAAGACCCTTTCCAGGACCCAGTCATGCAGTTACAATCTTGACCTCTTTCTTATGCTGGGAACATGCATACAGCAGCACCTCCCATGTGTTTTCTTGTCCCATTGACTGTCCATTCACTTCCCATCTGTTTTGCAGTCTTAAAGGAACAGAAGGGTGCCAGTCGGATAGTGTTCC | 0.852 | 1.3 | -0.237 | – | 0.706
GATGGACCCTATACGCGGCGGTTGCTCTCAGCAGTGAGCCATTCATTCCTCAGAGATTTGGGAGCCCTCACCACGTGCAGACGCTGTGCTGCAGGCTGGGAACCACAGGAGAAATGGCTGAATGTTCTGTGGGTGTGGCTGTAGGCAGAGGGCTGATCAGTGAGGTGGGGTGGTGACAGTCTTCTATAGGATGTCGTATGCATCATTTATTGCCAGTCGGATAGTGTTCC | 1.74 | 0.522 | -0.0355 | – | 0.262
